In PMC9177958, “Structures of nonsense-mediated mRNA decay factors UPF3B and UPF3A in complex with UPF2 reveal molecular basis for competitive binding and for neurodevelopmental disorder-causing mutation” (Nucleic Acids Research, 2022):
These are yes or no findings as the source states them, for the method shown.

Molecular target: T1, biotinylated Avi-UPF2-MIF4GIII (UniProt Q9HAU5 761-1054, biotin on the Avi tag (BirA))
T1 construct: UPF2, third middle-domain of eukaryotic initiation factor 4G (MIF4GIII), residues 761-1054; Avi tag added by site-directed mutagenesis to UPF2-MIF4GIII; also called immobilized UPF2-MIF4GIII; source: E. coli BL21 Rosetta2(DE3), purified (Ni-NTA, TEV, reverse IMAC, ion exchange); biotinylated with BirA, SEC
T1 sequence (looked up): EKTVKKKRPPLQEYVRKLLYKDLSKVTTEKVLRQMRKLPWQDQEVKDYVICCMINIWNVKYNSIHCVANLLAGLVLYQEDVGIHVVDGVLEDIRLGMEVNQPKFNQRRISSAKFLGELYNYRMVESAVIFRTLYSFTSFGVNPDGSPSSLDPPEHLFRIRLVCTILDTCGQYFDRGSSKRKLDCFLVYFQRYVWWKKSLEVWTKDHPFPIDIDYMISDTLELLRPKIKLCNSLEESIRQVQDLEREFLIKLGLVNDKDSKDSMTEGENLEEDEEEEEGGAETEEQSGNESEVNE
Assay: SPR; 350 RU biotinylated Avi-UPF2-MIF4GIII immobilised on an SA chip (Biacore T200); UPF3B and UPF3A constructs injected; 15°C; 300 mM NaCl, 25 mM HEPES pH 7.4, 0.25 mM TCEP, 0.05% Tween-20; global fit, 1:1 binding model; both purified

- binding: no binding
B1: UPF3A-58–173-Iso2 (domain or fragment, UniProt Q9H1J1-2 58-173)
chain: KPREEKRTALSKVVIRRLPPGLTKEQLEEQLRPLPAHDYFEFFAADLSLYPHLYSRAYINFRNPDDILLFRDRFDGYIFLDSKDPEYKKFLETYCVEEEKTSANPETLLGEMEAKT
